{"source": "the supplement of paper PMC8728848", "experiment_in_all_cases": "glycan array binding signal (z-score within array); higher = stronger binding", "conditions_in_all_cases": "glycan notation: IUPAC condensed, linker removed", "key": {"[1]": {"biological_target": "Fuc(a1-2)Gal(b1-4)GlcNAc(b1-3)Gal(b1-4)GlcNAc(b1-2)Man(a1-3)[Fuc(a1-2)Gal(b1-4)GlcNAc(b1-3)Gal(b1-4)GlcNAc(b1-2)Man(a1-6)]Man(b1-4)GlcNAc(b1-4)GlcNAc", "method_in_brief": "(§1)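 The Consortium for Functional Glycomics database supplied 3228 glycan arrays, of which those lacking an available protein sequence were dropped. The binding signal, a within-array Z-score, was averaged across arrays of the same protein sequence and across linkers. Negative scores can be read as non-binding.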"}, "[2]": {"biological_target": "Fuc(a1-2)Gal(b1-4)GlcNAc(b1-3)Gal(b1-4)GlcNAc(b1-3)Gal(b1-4)GlcNAc", "method_in_brief": "as §1"}, "[3]": {"biological_target": "Fuc(a1-2)Gal(b1-4)GlcNAc(b1-3)GalNAc", "method_in_brief": "as §1"}, "[4]": {"biological_target": "Fuc(a1-2)Gal(b1-4)GlcNAc(b1-3)[Fuc(a1-2)Gal(b1-4)GlcNAc(b1-6)]GalNAc", "method_in_brief": "as §1"}, "[5]": {"biological_target": "Fuc(a1-2)Gal(b1-4)GlcNAc(b1-3)[Fuc(a1-3)[Gal(b1-4)]GlcNAc(b1-6)]Gal(b1-4)Glc", "method_in_brief": "as §1"}, "[6]": {"biological_target": "Fuc(a1-2)Gal(b1-4)GlcNAc(b1-6)GalNAc", "method_in_brief": "as §1"}, "[7]": {"biological_target": "Fuc(a1-2)Gal(b1-4)GlcNAc6S", "method_in_brief": "as §1"}, "[8]": {"biological_target": "Fuc(a1-2)Gal(b1-4)[Fuc(a1-3)]GlcNAc", "method_in_brief": "as §1"}, "[9]": {"biological_target": "Fuc(a1-2)Gal(b1-4)[Fuc(a1-3)]GlcNAc(b1-2)Man(a1-3)[Fuc(a1-2)Gal(b1-4)[Fuc(a1-3)]GlcNAc(b1-2)Man(a1-6)]Man(b1-4)GlcNAc(b1-4)[Fuc(a1-6)]GlcNAc", "method_in_brief": "as §1"}, "[10]": {"biological_target": "Fuc(a1-2)Gal(b1-4)[Fuc(a1-3)]GlcNAc(b1-2)[Fuc(a1-2)Gal(b1-4)[Fuc(a1-3)]GlcNAc(b1-4)]Man(a1-3)[Fuc(a1-2)Gal(b1-4)[Fuc(a1-3)]GlcNAc(b1-2)Man(a1-6)]Man(b1-4)GlcNAc(b1-4)GlcNAc", "method_in_brief": "as §1"}, "[11]": {"biological_target": "Fuc(a1-2)Gal(b1-4)[Fuc(a1-3)]GlcNAc(b1-3)Gal(b1-4)[Fuc(a1-3)]GlcNAc", "method_in_brief": "as §1"}, "[12]": {"biological_target": "Fuc(a1-2)Gal(b1-4)[Fuc(a1-3)]GlcNAc(b1-3)Gal(b1-4)[Fuc(a1-3)]GlcNAc(b1-3)Gal(b1-4)[Fuc(a1-3)]GlcNAc", "method_in_brief": "as §1"}, "[13]": {"biological_target": "Fuc(a1-2)Gal(b1-4)[Fuc(a1-3)]GlcNAc(b1-3)GalNAc", "method_in_brief": "as §1"}, "[14]": {"biological_target": "Fuc(a1-2)Gal(b1-4)[Fuc(a1-3)]GlcNAc(b1-3)[Neu5Ac(a2-6)Gal(b1-4)GlcNAc(b1-6)]Gal(b1-4)Glc", "method_in_brief": "as §1"}, "[15]": {"biological_target": "Fuc(a1-2)Gal3S(b1-4)GlcNAc", "method_in_brief": "as §1"}, "[16]": {"biological_target": "Fuc(a1-2)Gal6S(b1-3)GlcNAc", "method_in_brief": "as §1"}, "[17]": {"biological_target": "Fuc(a1-2)Gal6S(b1-3)GlcNAc6S", "method_in_brief": "as §1"}, "Fuc(a1-2)Gal6S(b1-4)Glc": {"biological_target": "Fuc(a1-2)Gal6S(b1-4)Glc", "method_in_brief": "as §1"}, "[18]": {"biological_target": "Fuc(a1-2)Gal6S(b1-4)Glc6S", "method_in_brief": "as §1"}, "Fuc(a1-2)[Gal(a1-3)]Gal": {"biological_target": "Fuc(a1-2)[Gal(a1-3)]Gal", "method_in_brief": "as §1"}, "[19]": {"biological_target": "Fuc(a1-2)[Gal(a1-3)]Gal(b1-3)GalNAc", "method_in_brief": "as §1"}, "[20]": {"biological_target": "Fuc(a1-2)[Gal(a1-3)]Gal(b1-3)GalNAc(b1-3)Gal(a1-4)Gal(b1-4)Glc", "method_in_brief": "as §1"}, "[21]": {"biological_target": "Fuc(a1-2)[Gal(a1-3)]Gal(b1-3)GlcNAc", "method_in_brief": "as §1"}, "[22]": {"biological_target": "Fuc(a1-2)[Gal(a1-3)]Gal(b1-3)GlcNAc(b1-2)Man(a1-3)[Fuc(a1-2)[Gal(a1-3)]Gal(b1-3)GlcNAc(b1-2)Man(a1-6)]Man(b1-4)GlcNAc(b1-4)GlcNAc", "method_in_brief": "as §1"}, "[23]": {"biological_target": "Fuc(a1-2)[Gal(a1-3)]Gal(b1-3)GlcNAc(b1-2)Man(a1-3)[Fuc(a1-2)[Gal(a1-3)]Gal(b1-3)GlcNAc(b1-2)Man(a1-6)]Man(b1-4)GlcNAc(b1-4)[Fuc(a1-6)]GlcNAc", "method_in_brief": "as §1"}, "[24]": {"biological_target": "Fuc(a1-2)[Gal(a1-3)]Gal(b1-3)GlcNAc(b1-3)GalNAc", "method_in_brief": "as §1"}, "[25]": {"biological_target": "Fuc(a1-2)[Gal(a1-3)]Gal(b1-3)GlcNAc(b1-6)GalNAc", "method_in_brief": "as §1"}, "[26]": {"biological_target": "Fuc(a1-2)[Gal(a1-3)]Gal(b1-4)Glc", "method_in_brief": "as §1"}, "[27]": {"biological_target": "Fuc(a1-2)[Gal(a1-3)]Gal(b1-4)GlcNAc", "method_in_brief": "as §1"}, "[28]": {"biological_target": "Fuc(a1-2)[Gal(a1-3)]Gal(b1-4)GlcNAc(b1-2)Man", "method_in_brief": "as §1"}}, "note": "The other results are listed elsewhere or left out."}
{"binder": "Epa8 (Candida glabrata) (protein) MGSSHHHHHHSSGLVPRGSHMASSRALSDYPLGCSPLLGTKLTPGLSMELYEYPLDNHGIGPHCWDPAYLNPEYPRTGFESHKLIGTAQNVMSLNFEHRTQDCHVEFSNLPASFNFPDQITLTNFTMLLYGYFKPKESGRYRFHMEADDLLLMNLGAGNAFDCCAHEATRNNLGDYIAYDIWAGTRKDVEVFLEKEVFYPLRLFFNNRDGRAALDFSYYLNGATEPGTDIPELLFSLPDGESCPAYI", "values": [{"measurement": "glycan array binding signal (z-score)", "setting": "[1]", "value": -1.67}, {"measurement": "glycan array binding signal (z-score)", "setting": "[2]", "value": 0.526}, {"measurement": "glycan array binding signal (z-score)", "setting": "[3]", "value": 0.143}, {"measurement": "glycan array binding signal (z-score)", "setting": "[4]", "value": -0.207}, {"measurement": "glycan array binding signal (z-score)", "setting": "[5]", "value": 0.972}, {"measurement": "glycan array binding signal (z-score)", "setting": "[6]", "value": 0.724}, {"measurement": "glycan array binding signal (z-score)", "setting": "[7]", "value": -0.155}, {"measurement": "glycan array binding signal (z-score)", "setting": "[8]", "value": -0.281}, {"measurement": "glycan array binding signal (z-score)", "setting": "[9]", "value": 0.259}, {"measurement": "glycan array binding signal (z-score)", "setting": "[10]", "value": 0.9}, {"measurement": "glycan array binding signal (z-score)", "setting": "[11]", "value": -0.915}, {"measurement": "glycan array binding signal (z-score)", "setting": "[12]", "value": -0.498}, {"measurement": "glycan array binding signal (z-score)", "setting": "[13]", "value": 2.63}, {"measurement": "glycan array binding signal (z-score)", "setting": "[14]", "value": -0.368}, {"measurement": "glycan array binding signal (z-score)", "setting": "[15]", "value": -0.437}, {"measurement": "glycan array binding signal (z-score)", "setting": "[16]", "value": -0.386}, {"measurement": "glycan array binding signal (z-score)", "setting": "[17]", "value": 1.52}, {"measurement": "glycan array binding signal (z-score)", "setting": "Fuc(a1-2)Gal6S(b1-4)Glc", "value": -0.314}, {"measurement": "glycan array binding signal (z-score)", "setting": "[18]", "value": -0.062}, {"measurement": "glycan array binding signal (z-score)", "setting": "Fuc(a1-2)[Gal(a1-3)]Gal", "value": -0.74}, {"measurement": "glycan array binding signal (z-score)", "setting": "[19]", "value": 0.146}, {"measurement": "glycan array binding signal (z-score)", "setting": "[20]", "value": 0.323}, {"measurement": "glycan array binding signal (z-score)", "setting": "[21]", "value": -0.24}, {"measurement": "glycan array binding signal (z-score)", "setting": "[22]", "value": -0.447}, {"measurement": "glycan array binding signal (z-score)", "setting": "[23]", "value": 0.488}, {"measurement": "glycan array binding signal (z-score)", "setting": "[24]", "value": 0.166}, {"measurement": "glycan array binding signal (z-score)", "setting": "[25]", "value": -0.457}, {"measurement": "glycan array binding signal (z-score)", "setting": "[26]", "value": -0.681}, {"measurement": "glycan array binding signal (z-score)", "setting": "[27]", "value": -0.826}, {"measurement": "glycan array binding signal (z-score)", "setting": "[28]", "value": -0.336}]}
